Values of other authors, collected in patent US6358699B1, “Assay for asymmetrical NG, NG dimethyl-l-arginine” (Cooke Pharma, priority 1999, dated 2002).

Conditions: cited from earlier work

Question: What does the source list for CN(C)C(N)=NCCC[C@H](N)C(=O)O [ADMA, asymmetric dimethylarginine]?
Answer: normal plasma ADMA level (normal values): about 1 micromolar; elevation of plasma ADMA levels from normal (uremic rats and patients with renal failure): 5-10 fold
